Out of some 190,000 compounds screened, about 570 (0.3%) were called active. Inconclusive means that the source gave no clear call. Such entries were picked first, then a sample of the others.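 How the source made its calls: active means z-score above 3 at 5 µM with at least 500 cells counted in the well; inconclusive means wells under 500 cells, flagged as cytotoxic or low count; inactive means the rest.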
Assay: up-regulation of insulin promoter-GFP reporter – imaging, high-content screening, mouse beta cells (AID 1625)
Conditions: MIN6 insulin promoter-GFP reporter, at 5 µM, active compounds read high

Row | SMILES | z-score
1 | CC1=C([N+](=O)[O-])C(c2cccc(Br)c2)C2=C(N1)c1ccccc1C2=O (stereo not drawn) | inconclusive: -0.92
2 | CC(=O)c1c(C)[nH]c(C(=O)Nc2ccc(C)cn2)c1C | inconclusive: -2.04
3 | CC(C)(C)C(C(Oc1ccc(Cl)cc1)n1cncn1)n1nnnc1C(c1cccc(Cl)c1)N1CCCCC1 (stereo not drawn) | inconclusive: -1.36
4 | Oc1ccc(CN2CCN(c3ccccc3)CC2)c2cccnc12 | inconclusive: -1.09
5 | CC(C)(C)CC(C)(C)NC(=S)Nc1ccc2nc(-c3ccccn3)c(-c3ccccn3)nc2c1 | inconclusive: -1.64
6 | CCOc1ccccc1OCCCNCc1ccco1 | inactive: -0.47
7 | CCOC(=O)C1CCN(C(=O)c2ccco2)CC1 | inactive: -0.05
8 | Cc1ccc(S(=O)(=O)NCCSc2nnnn2-c2cc(C)ccc2C)cc1 | inactive: 0.23
9 | CC1c2[nH]c3ccccc3c2CCN1C(=O)Nc1ccccc1 (stereo not drawn) | inconclusive: -0.41
10 | CCOC(=O)NC(NC(=S)Nc1ccc(OC)cc1)C(Cl)(Cl)Cl (stereo not drawn) | inactive: -0.17
11 | C=CC(O)Cc1c(C)n[nH]c1C (stereo not drawn) | inactive: -0.59
12 | COc1ccc(C(=O)/C=C/C(=O)N(CC(=O)NC2CCCCC2)Cc2cccs2)c(O)c1 | inconclusive: -2.25
13 | Cn1c(SCC(=O)N2CCCc3ccccc32)nc2ccccc2c1=O | inconclusive: -1.62
14 | CCOc1ccc(-c2nnc(SCc3nnc(-c4ccccc4)o3)n2-c2ccccc2F)cc1 | inactive: -0.44
15 | CCOC(=O)Cn1c(=O)c(-c2cc(Br)ccc2N)nc2ccccc21 | active: 6.82
16 | Cc1cc(C)c(/C=N/n2c(C)cc(C)c(C#N)c2=O)c(C)c1 | inconclusive: -9.75
17 | NCCNc1ccc([N+](=O)[O-])c(NC2CC2)c1 | inconclusive: -2.57
18 | CCN(CC)CC#CCC(OC)(c1ccccc1)c1ccccc1 | inactive: -0.71
19 | CC1CCN(S(=O)(=O)c2ccc3c(c2)C(=NO)c2cc(S(=O)(=O)N4CCC(C)CC4)ccc2-3)CC1 | inconclusive: -6.62
20 | O=C(Nc1ccc2c(c1)nc1n2CCCCC1)c1cc(S(=O)(=O)N2CCOCC2)ccc1Cl | inconclusive: -6.33
21 | Cc1c(C(=O)NC(C)C)c(-c2ccccc2)nn1-c1ccccc1 | inconclusive: -5.9
22 | CCN(CC)c1ccc(/C=C/c2cc(-c3ccccc3)c3ccccc3n2)cc1 | active: 15.3
23 | COc1cc2c(cc1OC)CN(C(=O)c1cc3ccccc3oc1=O)CC2 | inactive: 0.17
24 | O=C(C1=C[C@H](C2CC2)C[C@H](OCCCCO)O1)N1CCN(Cc2ccccc2)CC1 | active: 3.72

Row | SMILES | z-score
25 | Cc1ccc2[nH]c3c(N4CCc5ccccc5C4)ncnc3c2c1 | inconclusive: -6.38
26 | O=C(CN1CCN(CCN2C(=O)c3cccc4cccc(c34)C2=O)CC1)c1ccc(F)cc1 | inactive: 1.01
27 | Cc1cc(C)n(-c2nc(NCC(C)O)c3c4c(sc3n2)COC(C)(C)C4)n1 (stereo not drawn) | inactive: -0.18
28 | CC1CC2(C)Oc3ccccc3CC2C(C)C1CNCCCN(C)C (stereo not drawn) | inconclusive: -5.2
29 | N#Cc1ccc(CSc2nnc(NC(=O)c3ccc4ncsc4c3)s2)cc1 | active: 4.4
30 | CCCOc1nc2c(c(=O)n(C)c(=O)n2C)n1Cc1cccc2ccccc12 | inconclusive: -6.53
31 | COCCNC(=O)Cc1ccc(F)cc1 | active: 3.03
32 | CC/C(=N\NC(=O)CCC(=O)NCc1ccccc1)c1ccc(O)cc1 | inconclusive: -4.9
33 | FC(F)Sc1ccc(NC(=S)NCc2ccccc2)cc1 | inactive: -0.59
34 | COc1ccccc1NC(=O)N1CCN(c2cc(-c3ccccc3)nc3ncnn23)CC1 | inconclusive: -2.22
35 | CCOc1ccc(-n2nnnc2SCC(=O)NNC(=O)c2ccco2)cc1 | inactive: -0.64
36 | CC(C)(C)C(=O)Cn1ncc(Cl)c(Cl)c1=O | inconclusive: -4.26
37 | COc1ccc(-c2cc(C(F)(F)F)n3nc(C(=O)N4CCCCC4)cc3n2)cc1OC | inconclusive: -0.32
38 | COc1ccc(/C=N/NC(=O)c2ccc(COCC(F)(F)C(F)F)cc2)cc1 | inconclusive: -4.66
39 | CSc1ccc(N/N=C(/C#N)S(=O)(=O)C(C)(C)C)cc1 | inactive: -0.48
40 | Cc1ccc(-c2c[n+]3c(n2-c2ccccc2)SCC3)cc1 | inconclusive: -5.5
41 | CCOC(=O)c1cccc(NC(=O)c2cncc(Br)c2)c1 | inconclusive: -5.21
42 | COc1cccc(OC)c1OCCN(C)C | active: 3.98
43 | CCOC(=O)N1CCN(c2ncnc3c2[nH]c2ccc(F)cc23)CC1 | inconclusive: -2.49
44 | O=C(N/N=C/c1cc(Cl)ccc1O)C(=O)Nc1ccccc1OC(F)(F)C(F)F | inconclusive: -3.08
45 | CCOC(=O)c1ccc(N=C2C(=S)N(c3ccc(C(=O)OCC)cc3)C(=N)N2/N=C/c2ccccc2)cc1 | inconclusive: -1.76
46 | COc1cccc(N2CCN(c3ncccn3)CC2)c1 | active: 3.1
47 | CCOc1ccc(C(=O)N2CCN(C(=O)c3ccco3)CC2)cc1OCC | inactive: 0.04
48 | CCN1/C(=C/c2cc[n+](CCCS(=O)(=O)[O-])c3ccccc23)Sc2ccccc21 | active: 6.08

Shown as tab-separated lines: part of the list above.
Row	SMILES	z-score
31	COCCNC(=O)Cc1ccc(F)cc1	active: 3.03
33	FC(F)Sc1ccc(NC(=S)NCc2ccccc2)cc1	inactive: -0.59

Following part

Row | SMILES | z-score
49 | COc1ccc(NS(=O)(=O)c2ccc(O)c(NC(=O)c3cc4c(C)nn(-c5ccc(F)cc5)c4s3)c2)cc1 | inactive: -0.57
50 | CC(C)(C)C(=O)Cn1ncc(Br)c(Br)c1=O | inconclusive: -4.16
51 | Cc1cc(NC(=O)C2CC(c3ccc(F)cc3)=NO2)n(-c2ccccc2)n1 (stereo not drawn) | inconclusive: -4.13
52 | O=C(Nc1ccc(S(=O)(=O)N2CCCCC2)cc1)c1ccc(CN2CCOCC2)cc1 | inconclusive: -1.56
53 | N#CC(C#N)=NNc1ccc(S(=O)(=O)N2CCCC2)cc1 | inconclusive: -1.1
54 | CCCCCCOC(=O)Nc1ccc(S(=O)(=O)Nc2cccc([N+](=O)[O-])c2)cc1 | inactive: -0.25
55 | Cc1ccc(O)c(CP(=O)(c2ccccc2)c2ccccc2)c1 | inactive: -0.26
56 | CCn1c2ccccc2c2nnc(SCC(=O)Nc3cc(C)on3)nc21 | active: 3.98
57 | Oc1c(C(c2ccccn2)N2CCCCC2)cc(Cl)c2cccnc12 (stereo not drawn) | inactive: -5.13
58 | CC(C)(C)c1ccc(NC(=O)COc2ccc(-n3ccnc3)cc2)cc1 | inconclusive: -2.26
59 | N#Cc1c2c(c(-n3cnc4ccccc43)n3c1nc1ccccc13)CCC2 | active: 4.79
60 | Cc1ccc(CN2CCN(/N=C/c3cc(Br)cc(Br)c3O)CC2)c(C)c1 | inactive: -0.6
61 | CCOC(=O)C1CCN(c2c(NCCCN3CCN(Cc4ccccc4)CC3)c(=O)c2=O)CC1 | inconclusive: -1.66
62 | O=C(CSc1nnc(-c2ccccc2)c(-c2ccccc2)n1)NCc1ccco1 | inactive: -0.06
63 | Nc1cnccc1C(=O)O | inactive: 0.61
64 | CC(=O)Nc1ccccc1NC(=O)CC(C)(C)C | inconclusive: -6.32
65 | COCCNC(=O)COC(=O)/C=C/c1c(C)nn(Cc2ccc(Cl)cc2Cl)c1Cl | inactive: 1.61
66 | CCOC(=O)c1ccc2c(c1)n(CC)c(/C=C/N(C)c1ccccc1)[n+]2CC | inconclusive: -1.7
67 | O=C(CSc1ncnc2c1oc1ccccc12)NC1CCCCC1 | inactive: 0.89
68 | CCOc1ccccc1C(=O)N1CCCCC1C (stereo not drawn) | inactive: -0.09
69 | CC1CCN(c2ncnc3ccccc23)CC1 | inconclusive: -1.65
70 | CCOc1ccc(NC(=O)CC2CC(C)(C)OC2=O)cc1 (stereo not drawn) | inactive: 0.91
71 | COc1ccc(-c2c[n+](CC(=O)c3ccccc3)c3n2CCCCC3)cc1 | inconclusive: -2.54
72 | Cc1cc(C)c(C#N)c(SCC2COc3ccccc3O2)n1 (stereo not drawn) | active: 3.48

Single entries from the results shown:
Entry for `CC1CCN(c2ncnc3ccccc23)CC1` under z-score: inconclusive: -1.65
Entry for `COc1ccc(-c2c[n+](CC(=O)c3ccccc3)c3n2CCCCC3)cc1` under z-score: inconclusive: -2.54
Entry for `Nc1cnccc1C(=O)O` under z-score: inactive: 0.61
Entry for `CCOC(=O)C1CCN(c2c(NCCCN3CCN(Cc4ccccc4)CC3)c(=O)c2=O)CC1` under z-score: inconclusive: -1.66
Entry for `CCCCCCOC(=O)Nc1ccc(S(=O)(=O)Nc2cccc([N+](=O)[O-])c2)cc1` under z-score: inactive: -0.25

Next part.

Row | SMILES | z-score
73 | CCOC(=O)c1ccc(S(=O)(=O)Nc2ccccc2-c2nnn(CC)n2)cc1 | inconclusive: -0.14
74 | CN(C)S(=O)(=O)c1ccc(NC(=O)c2cc(-c3cccs3)nc3ccccc23)cc1 | inconclusive: -4.77
75 | O=C(Nc1ccccc1)N1N=C(c2cccs2)CC1c1cccs1 (stereo not drawn) | inactive: -0.15
76 | O=c1ccc(NS(=O)(=O)c2ccccc2)cn1Cc1ccc(Cl)c(Cl)c1 | active: 4.35
77 | COc1cc(NC(=O)Cn2ncc(Cl)c(Cl)c2=O)c(C)cc1[N+](=O)[O-] | inconclusive: -5.72
78 | O=Nc1c(O)[nH]c2ccc(F)cc12 | inactive: -0.71
79 | COc1ccc2c(c1)sc(=N)n2C | inconclusive: -4.64
80 | COc1ccc(Cn2c(-c3ccc(C)cc3)c[n+]3ccccc23)cc1 | inconclusive: -2.97
81 | CCS(=O)(=O)N1CCN(Cc2nc3ccccc3c(=O)[nH]2)CC1 | inactive: 0.61
82 | Cc1cc(/C=N/n2cnnc2)c(C)n1-c1cccc(C(=O)O)c1 | active: 4.18
83 | C=CC[n+]1c(/C=C2\C=Cc3cc(C)ccc3N2CC)ccc2ccccc21 | inconclusive: 0.14
84 | COc1cc([N+](=O)[O-])ccc1-c1ccc(/C=N/NC(N)=O)o1 | active: 3.33
85 | O=C(NC1CCCC1)c1cc(COc2ccc3ncccc3c2)on1 | inconclusive: -1.55
86 | CC(C)c1ccc(/C=C/C(=O)Nc2nncs2)cc1 | inconclusive: -6.24
87 | COc1cccc(NC(=O)Cc2nnc(SCC(=O)c3ccccc3)n2C)c1 | inconclusive: 0.38
88 | Cc1nc2c(oc3ccccc32)c(=O)o1 | active: 4.23
89 | CCN(C(=O)c1ccco1)c1nnc(-c2ccc(OC)cc2)s1 | inactive: -0.02
90 | Cc1ccccc1-n1c(C)nnc1SCC(=O)N1CCc2ccccc2C1 | inactive: 0.79
91 | CN(C)/C=C1/Nc2ccccc2C1=O | active: 4.71
92 | O=C(Cn1cc(C(=O)c2cccs2)c2ccccc21)NCc1cccs1 | inconclusive: -6.02
93 | CCC/C(=N\NC(=O)c1ccc(OC)c(OC)c1)c1ccccc1 | inactive: -0.32

Reference: PubChem BioAssay AID1625 (Sanford-Burnham Center for Chemical Genomics, 2009)
